Data published in paper PMC11571712.
No constants are given. Whether binding was seen depends on the method and setting. In cells and extracts the contact can be indirect. Some binding calls cover weakened binding; strength is not graded here.

Amino acid sequences for entries named in this document (tags omitted).
UniProt P01106: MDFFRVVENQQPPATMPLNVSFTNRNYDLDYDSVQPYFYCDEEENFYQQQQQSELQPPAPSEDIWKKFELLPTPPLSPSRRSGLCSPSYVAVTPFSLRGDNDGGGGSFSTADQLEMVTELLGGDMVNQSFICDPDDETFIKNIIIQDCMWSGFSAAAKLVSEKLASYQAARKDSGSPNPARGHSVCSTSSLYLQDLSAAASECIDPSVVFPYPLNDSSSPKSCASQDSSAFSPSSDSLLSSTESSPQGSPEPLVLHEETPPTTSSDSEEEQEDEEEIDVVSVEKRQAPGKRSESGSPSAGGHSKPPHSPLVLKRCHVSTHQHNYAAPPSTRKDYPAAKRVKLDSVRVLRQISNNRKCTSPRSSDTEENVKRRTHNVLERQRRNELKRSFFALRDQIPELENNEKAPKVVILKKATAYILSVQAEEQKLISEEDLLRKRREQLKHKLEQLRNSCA
UniProt Q9BXK1: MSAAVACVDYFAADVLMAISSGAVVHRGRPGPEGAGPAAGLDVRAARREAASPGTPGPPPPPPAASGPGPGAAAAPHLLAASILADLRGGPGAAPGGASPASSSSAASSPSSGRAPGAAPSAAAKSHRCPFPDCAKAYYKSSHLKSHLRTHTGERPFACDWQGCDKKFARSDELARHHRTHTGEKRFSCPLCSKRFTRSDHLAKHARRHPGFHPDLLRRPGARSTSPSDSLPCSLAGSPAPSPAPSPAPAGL

Columns and labels:
[1] = molecular target: c-Myc (MYC), endogenous (human (endogenous in UM-UC-3 and T24)) (UniProt P01106); assay: co-IP; endogenous proteins; UM-UC-3 and T24 lysates in RIPA buffer (50 mM Tris-HCl pH 8.0, 150 mM NaCl, 0.5% NP-40, 5 mM EDTA); anti-MYC antibody or anti-IgG overnight at 4 °C, then protein A/G agarose beads 4 h at 4 °C; Western blotting
[2] = molecular target: KLF16, transfected in HEK293T cells for the co-IP with SFB-MYC truncations (human) (UniProt Q9BXK1); assay: co-IP; HEK293T cells co-transfected with the indicated plasmids (SFB-MYC truncations); immunoprecipitation with anti-HA beads, Western blotting

binding [1] | binding [2] | Substance
binds |  | Krüppel-like factor 16 (KLF16), endogenous (from UniProt Q9BXK1 1-252)
 | binds | SFB-MYC (from UniProt P01106 1-454)
